Results from the supplement of paper PMC8728848.
This is one part of the list.

Key:
Assay in all cases: glycan array binding signal (z-score within array); higher = stronger binding
Conditions in all cases: glycan notation: IUPAC condensed, linker removed
Neu5Ac(a2-3)GalNAc = target: Neu5Ac(a2-3)GalNAc
How it was run: (§1)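 From the Consortium for Functional Glycomics database, 3228 arrays were curated, keeping only those whose protein sequence was available. Binding is given as a within-array Z-score averaged across arrays sharing a protein sequence and across linkers. Negative Z-scores can be read as non-binding.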

[1] = target: Neu5Ac(a2-3)GalNAc(b1-4)GlcNAc
How it was run: as §1

[2] = target: Neu5Ac(a2-3)[GalNAc(b1-4)]Gal(b1-4)Glc
How it was run: as §1

[3] = target: Neu5Ac(a2-3)[GalNAc(b1-4)]Gal(b1-4)GlcNAc
How it was run: as §1

[4] = target: Neu5Ac(a2-3)[GalNAc(b1-4)]Gal(b1-4)GlcNAc(b1-3)GalNAc
How it was run: as §1

[5] = target: Neu5Ac(a2-3)[Neu5Ac(a2-6)]GalNAc
How it was run: as §1

Neu5Ac(a2-6)Gal = target: Neu5Ac(a2-6)Gal
How it was run: as §1

[6] = target: Neu5Ac(a2-6)Gal(b1-3)GlcNAc(b1-3)[Gal(b1-4)GlcNAc(b1-6)]Gal(b1-4)Glc
How it was run: as §1

Neu5Ac(a2-6)Gal(b1-4)Glc = target: Neu5Ac(a2-6)Gal(b1-4)Glc
How it was run: as §1

[7] = target: Neu5Ac(a2-6)Gal(b1-4)GlcNAc
How it was run: as §1

[8] = target: Neu5Ac(a2-6)Gal(b1-4)GlcNAc(b1-2)Man
How it was run: as §1

[9] = target: Neu5Ac(a2-6)Gal(b1-4)GlcNAc(b1-2)Man(a1-3)Man(b1-4)GlcNAc(b1-4)GlcNAc
How it was run: as §1

[10] = target: Neu5Ac(a2-6)Gal(b1-4)GlcNAc(b1-2)Man(a1-3)[Gal(b1-4)GlcNAc(b1-2)Man(a1-6)]Man(b1-4)GlcNAc(b1-4)GlcNAc
How it was run: as §1

[11] = target: Neu5Ac(a2-6)Gal(b1-4)GlcNAc(b1-2)Man(a1-3)[GlcNAc(b1-4)][Neu5Ac(a2-6)Gal(b1-4)GlcNAc(b1-2)Man(a1-6)]Man(b1-4)GlcNAc(b1-4)GlcNAc
How it was run: as §1

[12] = target: Neu5Ac(a2-6)Gal(b1-4)GlcNAc(b1-2)Man(a1-3)[Man(a1-6)]Man(b1-4)GlcNAc(b1-4)GlcNAc
How it was run: as §1

[13] = target: Neu5Ac(a2-6)Gal(b1-4)GlcNAc(b1-2)Man(a1-3)[Neu5Ac(a2-3)Gal(b1-4)GlcNAc(b1-2)Man(a1-6)]Man(b1-4)GlcNAc(b1-4)GlcNAc
How it was run: as §1

[14] = target: Neu5Ac(a2-6)Gal(b1-4)GlcNAc(b1-2)Man(a1-3)[Neu5Ac(a2-6)Gal(b1-4)GlcNAc(b1-2)Man(a1-6)]Man(b1-4)GlcNAc(b1-4)GlcNAc
How it was run: as §1

[15] = target: Neu5Ac(a2-6)Gal(b1-4)GlcNAc(b1-2)Man(a1-3)[Neu5Ac(a2-6)Gal(b1-4)GlcNAc(b1-2)Man(a1-6)]Man(b1-4)GlcNAc(b1-4)[Fuc(a1-6)]GlcNAc
How it was run: as §1

[16] = target: Neu5Ac(a2-6)Gal(b1-4)GlcNAc(b1-2)Man(a1-6)Man(b1-4)GlcNAc(b1-4)GlcNAc
How it was run: as §1

[17] = target: Neu5Ac(a2-6)Gal(b1-4)GlcNAc(b1-2)Man(a1-6)[Gal(b1-4)GlcNAc(b1-2)Man(a1-3)]Man(b1-4)GlcNAc(b1-4)GlcNAc
How it was run: as §1

[18] = target: Neu5Ac(a2-6)Gal(b1-4)GlcNAc(b1-2)Man(a1-6)[GlcNAc(b1-2)Man(a1-3)]Man(b1-4)GlcNAc(b1-4)GlcNAc
How it was run: as §1

[19] = target: Neu5Ac(a2-6)Gal(b1-4)GlcNAc(b1-2)Man(a1-6)[Man(a1-3)]Man(b1-4)GlcNAc(b1-4)GlcNAc
How it was run: as §1

[20] = target: Neu5Ac(a2-6)Gal(b1-4)GlcNAc(b1-2)[Neu5Ac(a2-6)Gal(b1-4)GlcNAc(b1-4)]Man(a1-3)[GlcNAc(b1-4)][Neu5Ac(a2-6)Gal(b1-4)GlcNAc(b1-2)[Neu5Ac(a2-6)Gal(b1-4)GlcNAc(b1-6)]Man(a1-6)]Man(b1-4)GlcNAc(b1-4)GlcNAc
How it was run: as §1

[21] = target: Neu5Ac(a2-6)Gal(b1-4)GlcNAc(b1-2)[Neu5Ac(a2-6)Gal(b1-4)GlcNAc(b1-4)]Man(a1-3)[GlcNAc(b1-4)][Neu5Ac(a2-6)Gal(b1-4)GlcNAc(b1-4)Man(a1-6)]Man(b1-4)GlcNAc(b1-4)GlcNAc
How it was run: as §1

[22] = target: Neu5Ac(a2-6)Gal(b1-4)GlcNAc(b1-2)[Neu5Ac(a2-6)Gal(b1-4)GlcNAc(b1-6)]Man(a1-6)[Neu5Ac(a2-6)Gal(b1-4)GlcNAc(b1-2)Man(a1-3)][GlcNAc(b1-4)]Man(b1-4)GlcNAc(b1-4)GlcNAc
How it was run: as §1

[23] = target: Neu5Ac(a2-6)Gal(b1-4)GlcNAc(b1-3)Gal(b1-3)GlcNAc
How it was run: as §1

[24] = target: Neu5Ac(a2-6)Gal(b1-4)GlcNAc(b1-3)Gal(b1-4)GlcNAc
How it was run: as §1

[25] = target: Neu5Ac(a2-6)Gal(b1-4)GlcNAc(b1-3)Gal(b1-4)GlcNAc(b1-2)Man(a1-3)[Neu5Ac(a2-6)Gal(b1-4)GlcNAc(b1-3)Gal(b1-4)GlcNAc(b1-2)Man(a1-6)]GalNAc
How it was run: as §1

[26] = target: Neu5Ac(a2-6)Gal(b1-4)GlcNAc(b1-3)Gal(b1-4)GlcNAc(b1-3)Gal(b1-4)GlcNAc
How it was run: as §1

[27] = target: Neu5Ac(a2-6)Gal(b1-4)GlcNAc(b1-3)Gal(b1-4)GlcNAc(b1-3)Gal(b1-4)GlcNAc(b1-2)Man(a1-3)[Neu5Ac(a2-6)Gal(b1-4)GlcNAc(b1-3)Gal(b1-4)GlcNAc(b1-3)Gal(b1-4)GlcNAc(b1-2)Man(a1-6)]GalNAc
How it was run: as §1

[28] = target: Neu5Ac(a2-6)Gal(b1-4)GlcNAc(b1-3)Gal(b1-4)GlcNAc(b1-3)GalNAc
How it was run: as §1

[29] = target: Neu5Ac(a2-6)Gal(b1-4)GlcNAc(b1-3)Gal(b1-4)GlcNAc(b1-3)[Neu5Ac(a2-6)Gal(b1-4)GlcNAc(b1-3)Gal(b1-4)GlcNAc(b1-6)]GalNAc
How it was run: as §1

[30] = target: Neu5Ac(a2-6)Gal(b1-4)GlcNAc(b1-3)Gal(b1-4)GlcNAc(b1-6)[Gal(b1-3)]GalNAc
How it was run: as §1

[31] = target: Neu5Ac(a2-6)Gal(b1-4)GlcNAc(b1-3)Gal(b1-4)[Fuc(a1-3)]GlcNAc(b1-3)Gal(b1-4)[Fuc(a1-3)]GlcNAc
How it was run: as §1

[32] = target: Neu5Ac(a2-6)Gal(b1-4)GlcNAc(b1-3)GalNAc
How it was run: as §1

[33] = target: Neu5Ac(a2-6)Gal(b1-4)GlcNAc(b1-3)[Neu5Ac(a2-6)Gal(b1-4)GlcNAc(b1-6)]GalNAc
How it was run: as §1

[34] = target: Neu5Ac(a2-6)Gal(b1-4)GlcNAc(b1-6)GalNAc
How it was run: as §1

[35] = target: Neu5Ac(a2-6)Gal(b1-4)GlcNAc(b1-6)[Gal(b1-3)GlcNAc(b1-3)]Gal(b1-4)Glc
How it was run: as §1

B1: Pwp6 (Candida glabrata) (protein)
chain: MGSSHHHHHHSSGLVPRGSHMASANLPKLTNICQIPDNVKKTSGFKGEIRRIGLFPPGGDYTYLLKFPSTGSTASDTISLTTKPQLSTSGWFPSLFGHTYFIKADLLVYMVAYFVPTETGEYTFKLVNSDDAAVMYVGNPSAFPCGSIDTWPEPRKEDINVCDKISASTKLYMEKGLAYPVRLVWYNGGGDGQFNAQFIDPSGTTHTDWNGYVWQYDACTDCDYK
glycan array binding signal (z-score) (Neu5Ac(a2-3)GalNAc): 0.114 | glycan array binding signal (z-score) [1]: -0.218 | glycan array binding signal (z-score) [2]: -0.669 | glycan array binding signal (z-score) [3]: -0.647 | glycan array binding signal (z-score) [4]: 0.861 | glycan array binding signal (z-score) [5]: 0.294 | glycan array binding signal (z-score) (Neu5Ac(a2-6)Gal): -0.673 | glycan array binding signal (z-score) [6]: -0.358 | glycan array binding signal (z-score) (Neu5Ac(a2-6)Gal(b1-4)Glc): -0.465 | glycan array binding signal (z-score) [7]: -0.575 | glycan array binding signal (z-score) [8]: -0.389 | glycan array binding signal (z-score) [9]: 0.056 | glycan array binding signal (z-score) [10]: 0.113 | glycan array binding signal (z-score) [11]: 0.446 | glycan array binding signal (z-score) [12]: -0.219 | glycan array binding signal (z-score) [13]: 0.761 | glycan array binding signal (z-score) [14]: 1.85 | glycan array binding signal (z-score) [15]: 2.8 | glycan array binding signal (z-score) [16]: 0.24 | glycan array binding signal (z-score) [17]: -0.261 | glycan array binding signal (z-score) [18]: 0.357 | glycan array binding signal (z-score) [19]: 0.213 | glycan array binding signal (z-score) [20]: -0.122 | glycan array binding signal (z-score) [21]: -0.266 | glycan array binding signal (z-score) [22]: -0.352 | glycan array binding signal (z-score) [23]: -0.183 | glycan array binding signal (z-score) [24]: -0.084 | glycan array binding signal (z-score) [25]: 1.26 | glycan array binding signal (z-score) [26]: -0.128 | glycan array binding signal (z-score) [27]: 8.45 | glycan array binding signal (z-score) [28]: 0.434 | glycan array binding signal (z-score) [29]: 1.55 | glycan array binding signal (z-score) [30]: -0.211 | glycan array binding signal (z-score) [31]: -0.242 | glycan array binding signal (z-score) [32]: 0.225 | glycan array binding signal (z-score) [33]: -0.208 | glycan array binding signal (z-score) [34]: 0.04 | glycan array binding signal (z-score) [35]: -0.043
